For data set [1], the system named is FAR-1. Description: Fluorescence titration, FAR•analyte complex formation in homogeneous solution. The data set is classed as binding. On the procedure: Fluorescence titrations were carried out in aqueous HEPES buffer (10 mM, pH 7, 22 °C) unless stated otherwise. To a solution of the FAR (typically at 10–30 μM) was stepwise added a solution of the analyte (typically up to 2 mM) and the fluorescence spectra were recorded. The normalized emissions at 450 nm (FAR-1) or at 370 nm (FAR-2) were fitted with an equation for a 1 : 1 binding by a least-square fit. The resulting affinity constants are reported in Supplementary Table 1. Representative titration plots are shown in Supplementary Fig. 1. Note that the high CB8-dye binding affinities correspond to a near quantitative degree of host-dye complexation, i.e., quantitative formation of the FAR, such that the subsequent binding of the analyte can be treated independently.

Data set [2] concerns FAR-2. The description is as above. The data set is classed as binding. As to the method: Fluorescence titrations were carried out in aqueous HEPES buffer (10 mM, pH 7, 22 °C) unless stated otherwise. To a solution of the FAR (typically at 10–30 μM) was stepwise added a solution of the analyte (typically up to 2 mM) and the fluorescence spectra were recorded. The normalized emissions at 450 nm (FAR-1) or at 370 nm (FAR-2) were fitted with an equation for a 1 : 1 binding by a least-square fit. The resulting affinity constants are reported in Supplementary Table 1. Representative titration plots are shown in Supplementary Fig. 1.

The nature of data set [3]: Binding to CB7 (dye-displacement titrations, ITC, literature). Conditions: dye-displacement titration.
The mark [4] stands for this setting: FAR-1, 10 mM HEPES buffer (pH 7).

Molecules are shown by their SMILES.

Regarding `O=C1C=CC(=O)C=C1` [1,4-benzoquinone], the “QE (quenching efficiency)” value in data set [1] (setting [4]) was greater than 0.9. With `Oc1ccc(O)cc1` [1,4-dihydroxybenzene], the “QE (quenching efficiency)” value in data set [2] was greater than 0.9. Still for that read-out and setting: next, `Oc1ccc2cc(O)ccc2c1` [2,6-dihydroxynapthalene]: greater than 0.9; `Oc1ccc2ccc(O)cc2c1` [2,7-dihydroxynapthalene, 2,7-dihydroxynaphthalene]: greater than 0.9.

Regarding `Oc1ccc2ccccc2c1` [2-naphthol], in data set [2], the “QE (quenching efficiency)” value is greater than 0.9. Consider `N#Cc1ccccc1O` [2CN-phenol, 2-cyanophenol], for which the “QE (quenching efficiency)” value in data set [2] is greater than 0.9. As for `CCOc1ccc(O)cc1` [4-ethoxyphenol], the “QE (quenching efficiency)” value in data set [2] is recorded as greater than 0.9. For the compound `COc1ccc(O)cc1` [4-methoxyphenol], the “QE (quenching efficiency)” value in data set [2] is listed as greater than 0.9. As for `N#Cc1ccc(O)cc1` [4CN-phenol, 4-cyanophenol], in data set [2], the “QE (quenching efficiency)” value is greater than 0.9.

In the case of `Oc1ccc(I)cc1` [4I-phenol, 4-iodophenol], the “QE (quenching efficiency)” value in data set [2] is on record as greater than 0.9. Consider `Nc1ccccc1` [Aniline, aniline], for which the “QE (quenching efficiency)” value is listed as greater than 0.9 in data set [2] and 0.9 in data set [1] (setting [4]). As for `c1ccc2[nH]ccc2c1` [Indole, indole], the “QE (quenching efficiency)” value in data set [2] is greater than 0.9. Regarding `CN(C)Cc1ccccc1` [N,N-dimethylbenzylamine], in data set [3] (dye PAL), the “QE (total change in fluorescence intensity upon complete displacement of the dye)” value is listed as greater than 0.9. Regarding `N[C@@H](Cc1ccccc1)C(=O)O` [Phe, phenylalanine], in data set [3] (dye AO), the “QE (total change in fluorescence intensity upon complete displacement of the dye)” value was greater than 0.9. For the compound `Oc1ccccc1` [Phenol, phenol], the “QE (quenching efficiency)” value in data set [2] and in data set [1] (pH 7) was greater than 0.9 throughout. Take `NCCc1c[nH]c2ccc(O)cc12` [Serotonin, serotonin]: the “QE (quenching efficiency)” value in data set [1] (setting [4]) is recorded as greater than 0.9. With `N[C@@H](Cc1c[nH]c2ccccc12)C(=O)O` [Trp, tryptophan], the “QE (quenching efficiency)” value in data set [2] is greater than 0.9. `NCCc1c[nH]c2ccccc12` [Tryptamine, tryptamine]: in data set [3] (dye DAPI), the “QE (total change in fluorescence intensity upon complete displacement of the dye)” value was found to be 0.8. Besides, the “QE (quenching efficiency)” value in data set [1] (setting [4]) is reported as greater than 0.9. As for `c1ccccc1` [benzene], in data set [1] (setting [4]), the “QE (quenching efficiency)” value is reported as less than 0.3. On to `NCCCCCN` [cadaverine], for which the “QE (total change in fluorescence intensity upon complete displacement of the dye)” value in data set [3] (dye AO) was greater than 0.9.

For `O=C(O)Cc1cc(O)ccc1O` [homogentisic acid], in data set [1] (setting [4]), the “QE (quenching efficiency)” value was greater than 0.9. On to `COc1ccc2cc([C@H](C)C(=O)O)ccc2c1` [naproxen, reference compound], for which, in data set [1] (setting [4]), the “QE (quenching efficiency)” value amounted to 0.5. For the compound `CN1CCC[C@H]1c1cccnc1` [nicotine], in data set [3] (dye BE), the “QE (total change in fluorescence intensity upon complete displacement of the dye)” value was found to be 0.9.

`COc1ccc(B(O)O)cc1` [p-anisylboronic acid]: the “QE (quenching efficiency)” value in data set [2] is listed as greater than 0.9. Consider `NCCc1ccccc1` [phenethylamine], for which the “QE (total change in fluorescence intensity upon complete displacement of the dye)” value in data set [3] (dye AO) is reported as greater than 0.9. Moreover, the “QE (quenching efficiency)” value in data set [1] (setting [4]) was found to be 0.4. For the compound `CCCN(CCOc1c(Cl)cc(Cl)cc1Cl)C(=O)n1ccnc1` [prochloraz], in data set [1] (setting [4]), the “QE (quenching efficiency)” value came out at 0.7.

`CCC(=O)Nc1ccc(Cl)c(Cl)c1` [propanil]: the “QE (quenching efficiency)” value in data set [1] (setting [4]) was greater than 0.9. With `CC(C)NCC(O)COc1cccc2ccccc12` (stereo not shown) [propranolol, reference compound], in data set [1] (setting [4]), the “QE (quenching efficiency)” value is greater than 0.9. On to `C=C(C)[C@H]1Cc2c(ccc3c2O[C@@H]2COc4cc(OC)c(OC)cc4[C@@H]2C3=O)O1` [rotenone], for which the “QE (quenching efficiency)” value in data set [1] (setting [4]) turned out to be 0.7. Take `Oc1ccc2c(c1)OCO2` [sesamol]: the “QE (quenching efficiency)” value in data set [2] is greater than 0.9. Turning to `NCCCNCCCCNCCCN` [spermine], in data set [3] (dye BE), the “QE (total change in fluorescence intensity upon complete displacement of the dye)” value worked out at 0.9. With `NCCc1ccc(O)cc1` [tyramine], the “QE (total change in fluorescence intensity upon complete displacement of the dye)” value in data set [3] (dye DAPI) is on record as 0.8.

With `Cc1ncc(C[n+]2csc(CCO)c2C)c(N)n1` [vitamin B1], the “QE (total change in fluorescence intensity upon complete displacement of the dye)” value in data set [3] (dye PAL) is listed as greater than 0.9.
